These are yes or no findings as the source states them, for the method shown. Binding seen in cells or lysates may run through a third protein. These calls come from enrichment with a bait or labelling near it, and not all partners need be listed. A no says only that the protein was not detected with the bait.

By UniProt entry, the sequences of proteins in these tests, tags left out.
UniProt Q27497: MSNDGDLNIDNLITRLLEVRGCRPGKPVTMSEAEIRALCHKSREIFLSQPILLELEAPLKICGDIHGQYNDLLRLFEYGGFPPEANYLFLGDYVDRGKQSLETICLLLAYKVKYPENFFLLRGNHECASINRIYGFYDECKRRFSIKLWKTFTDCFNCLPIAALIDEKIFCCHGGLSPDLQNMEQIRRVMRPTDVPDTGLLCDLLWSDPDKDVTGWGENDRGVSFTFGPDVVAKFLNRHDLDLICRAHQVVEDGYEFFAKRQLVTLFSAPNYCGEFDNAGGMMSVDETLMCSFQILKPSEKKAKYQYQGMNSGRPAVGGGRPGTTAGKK
UniProt P48727: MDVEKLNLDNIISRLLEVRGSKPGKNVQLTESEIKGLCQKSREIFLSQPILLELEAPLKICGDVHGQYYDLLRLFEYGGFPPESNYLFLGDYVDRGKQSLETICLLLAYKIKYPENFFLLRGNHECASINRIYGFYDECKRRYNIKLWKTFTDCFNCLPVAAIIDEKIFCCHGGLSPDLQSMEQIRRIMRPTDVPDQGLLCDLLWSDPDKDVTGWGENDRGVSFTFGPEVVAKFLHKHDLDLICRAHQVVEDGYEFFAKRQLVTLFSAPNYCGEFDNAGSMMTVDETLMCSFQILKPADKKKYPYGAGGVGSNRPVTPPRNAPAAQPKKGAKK

Common to all, as to assay: affinity purification with mass spectrometry; I-2^SZY-2, SDS-22 and PP1β^GSP-1 each immunoprecipitated from worm extracts; immunoprecipitated material analysed by mass spectrometry
Assay [1] has as its target I-2^SZY-2 (C. elegans homolog of inhibitor-2, regulator of protein phosphatase 1) (C. elegans (endogenous in N2 worms)) (UniProt Q9N537).
Assay [2] addresses T1, SDS-22 (C. elegans leucine-rich repeat PP1 regulator) (C. elegans (endogenous in N2 worms)) (UniProt P45969).
T1 sequence: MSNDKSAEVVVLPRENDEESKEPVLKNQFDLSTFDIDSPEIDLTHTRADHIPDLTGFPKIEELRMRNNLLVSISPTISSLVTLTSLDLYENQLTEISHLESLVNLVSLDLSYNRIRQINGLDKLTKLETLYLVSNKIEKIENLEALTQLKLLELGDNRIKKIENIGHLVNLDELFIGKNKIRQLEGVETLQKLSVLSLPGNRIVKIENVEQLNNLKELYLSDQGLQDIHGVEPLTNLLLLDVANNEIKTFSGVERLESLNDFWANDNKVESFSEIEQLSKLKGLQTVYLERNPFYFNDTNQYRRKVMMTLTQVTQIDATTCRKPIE

Assay [3] addresses PP1β^GSP-1 (C. elegans PP1 catalytic subunit, PP1β homolog) (C. elegans (endogenous in N2 worms)) (UniProt Q27497).

Regarding “PP1β^GSP-1 (C. elegans PP1 catalytic subunit, PP1β homolog) (from UniProt Q27497 1-329) (enzyme)”, the binding entry in assay [1] and in assay [2] was “binds” throughout.
“PP1α^GSP-2 (C. elegans PP1 catalytic subunit, PP1α homolog) (from UniProt P48727 1-333) (enzyme)”: the binding result in assay [1] is on record as “binds”.

B1: SDS-22 (C. elegans leucine-rich repeat PP1 regulator) (protein, UniProt P45969 1-326)
chain: T1 sequence
Turning to B1, the binding entry in assay [1] was “no binding”.

B2: ZYG-1 (C. elegans homolog of Plk4) (enzyme, UniProt Q9GT24 1-706)
chain: MSGGKSGSRLSAYSHLKEIGKGGFGVVYAAQRENGEKVAIKRIDKKVPKNRVWTEIQTMKELKKSKYVVEFYEDFVEDGYTYIVMELCEGGSLQAYVREHGALDDATAVHVLRQLISAVSFMHRVNVIHRDLSAGNVFIKDSKKKKMTVKLGDFGLATTLGRGETTCTIVGTPGFIAPQVYDQEYTQSADVYSLGAVLYTMLTARNPPPKGLPPTCGMSPNAARLVEQMMDTDAKKRIPLTQIVLSEFMYENTNENAVIFSREHSRDGRRQRSREPVRSSRDDRSRDGRALIRSSSQPAHSGRAPLSNRPIHDRMPSTSSRGFDSERGRERDRDSGRGTVPPSREDRNRSQLWPIRMDRLEGQRVCTAGGRYIVELDTRCRFEVAAQGNFVKRILIVEVDEMVQTVYVHRIPDRTVRGRNGEEELITLTNNPFVYTSYSQMPKEVQNDYMRLQKMVAVTISGRVAKVTFRRPSQFPDAQAQLMENGDLRIKLPRSVIVRKMDNGEIFNCIDGIATQKQAVSGITLTKVNEVYKYLIRFEQCLNGMDRGMVCFPIVFSAGTNMVGSSPSSLMPSGSSQTSRFPFSNLSNNQPSLVPHSAPFLTKPTSSQRASSANVQRRVSTDENSSPSVAPSKYKIKIDPTTQKVRSIQATDGRVLRCSTSKADQFIFTDPAIRPDDQRFMRTDRVPDRASEMLHTLCERMRKLHQ
As to B2, the binding entry in assay [1], in assay [3] and in assay [2] was “no binding” each time.

(Values after paper PMC5289615.)
